{"source": "the supplement of paper PMC4604168 (melanoma cell lines)", "note": "The list shows a part of the results. Single values are uncertain, as repeats are few or missing.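 Cells were imaged in 1,536-well plates, and nuclei stained with an antibody against cleaved PARP were counted against all DNA-stained nuclei to give the apoptosis fraction. Screening doses were chosen to leave most cells alive, and resting and induced cleaved-PARP levels differ strongly between cell lines.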", "data": [{"tested_on": "SkMel30", "assay": "cleaved PARP positive nuclei fraction relative to DMSO control; melanoma cells; higher = more apoptosis", "conditions": "library dose: low library concentration; 72 h", "units": {"cleaved PARP positive nuclei fraction": "%"}, "values": [{"smiles": "COc1cc([C@@H]2c3cc4c(cc3[C@@H](O[C@@H]3O[C@@H]5CO[C@@H](C)O[C@H]5[C@H](O)[C@H]3O)[C@H]3COC(=O)[C@H]23)OCO4)cc(OC)c1O", "note": "[etoposide] + COc1cc(N2CCC(N3CCN(C)CC3)CC2)ccc1Nc1ncc(Cl)c(Nc2ccccc2S(=O)(=O)C(C)C)n1 [NVP-TAE684] (first compound 0.02 µM, partner dose 0.08 µM)", "cleaved PARP positive nuclei fraction": 61.7}, {"smiles": "Cc1cc(Nc2cc(N3CCN(C)CC3)nc(Sc3ccc(NC(=O)C4CC4)cc3)n2)n[nH]1", "note": "[Tozasertib] + COc1cc(N2CCC(N3CCN(C)CC3)CC2)ccc1Nc1ncc(Cl)c(Nc2ccccc2S(=O)(=O)C(C)C)n1 [NVP-TAE684] (first compound 0.006 µM, partner dose 0.08 µM)", "cleaved PARP positive nuclei fraction": 93.2}, {"smiles": "CCCCCCCCCCCCCCCCCCOP(=O)([O-])OC1CC[N+](C)(C)CC1", "note": "[Perifosine] + O=S(=O)(c1ccccc1)N(CC(F)(F)F)c1ccc(C(O)(C(F)(F)F)C(F)(F)F)cc1 [T0901317] (first compound 0.4 µM, partner dose 1.4 µM)", "cleaved PARP positive nuclei fraction": 106}, {"smiles": "CC[C@]1(O)C[C@H]2CN(CCc3c([nH]c4ccccc34)[C@@](C(=O)OC)(c3cc4c(cc3OC)N(C=O)[C@H]3[C@@](O)(C(=O)OC)[C@H](OC(C)=O)[C@]5(CC)C=CCN6CC[C@]43[C@@H]65)C2)C1", "note": "[vincristine] + Cn1cncc1[C@@](N)(c1ccc(Cl)cc1)c1ccc2c(c1)c(-c1cccc(Cl)c1)cc(=O)n2C [tipifarnib] (first compound 0.0001 µM, partner dose 0.01 µM)", "cleaved PARP positive nuclei fraction": 816}]}]}
